# Data reported in article doi:10.1101/2019.12.20.885392.
# Amino acid sequences for entries named in this document (tags omitted).
# UniProt Q5CCK4: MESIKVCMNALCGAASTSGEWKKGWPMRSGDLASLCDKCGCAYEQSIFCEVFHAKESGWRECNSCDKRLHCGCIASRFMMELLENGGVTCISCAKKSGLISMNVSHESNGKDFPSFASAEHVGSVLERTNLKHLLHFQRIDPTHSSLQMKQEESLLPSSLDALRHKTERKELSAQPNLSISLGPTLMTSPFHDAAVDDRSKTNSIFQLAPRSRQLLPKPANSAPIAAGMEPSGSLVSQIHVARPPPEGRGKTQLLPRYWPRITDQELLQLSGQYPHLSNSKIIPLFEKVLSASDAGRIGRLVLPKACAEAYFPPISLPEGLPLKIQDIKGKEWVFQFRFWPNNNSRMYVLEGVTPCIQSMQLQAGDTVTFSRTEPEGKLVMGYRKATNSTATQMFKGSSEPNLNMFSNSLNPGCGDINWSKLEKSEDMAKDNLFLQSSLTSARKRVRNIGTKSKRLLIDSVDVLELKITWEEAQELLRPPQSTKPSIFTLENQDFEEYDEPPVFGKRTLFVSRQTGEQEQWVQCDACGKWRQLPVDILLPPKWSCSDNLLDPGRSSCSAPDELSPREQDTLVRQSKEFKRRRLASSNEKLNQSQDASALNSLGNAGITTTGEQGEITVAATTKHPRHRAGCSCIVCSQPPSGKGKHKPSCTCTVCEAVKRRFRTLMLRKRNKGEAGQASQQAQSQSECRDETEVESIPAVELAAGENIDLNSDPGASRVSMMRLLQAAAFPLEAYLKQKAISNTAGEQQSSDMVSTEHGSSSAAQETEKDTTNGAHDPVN
# Results are given in words; binding and its absence hold for the method and conditions named. For some of these results: In cells and extracts the contact can be indirect. Some entries that bind do so weakly or less than the wild type. For some of these results: Tags and fused reporters may be left off the sequences shown.
# T1: HSI2, yeast two-hybrid fusion (Arabidopsis thaliana) (UniProt Q8W4L5)
# T1 sequence: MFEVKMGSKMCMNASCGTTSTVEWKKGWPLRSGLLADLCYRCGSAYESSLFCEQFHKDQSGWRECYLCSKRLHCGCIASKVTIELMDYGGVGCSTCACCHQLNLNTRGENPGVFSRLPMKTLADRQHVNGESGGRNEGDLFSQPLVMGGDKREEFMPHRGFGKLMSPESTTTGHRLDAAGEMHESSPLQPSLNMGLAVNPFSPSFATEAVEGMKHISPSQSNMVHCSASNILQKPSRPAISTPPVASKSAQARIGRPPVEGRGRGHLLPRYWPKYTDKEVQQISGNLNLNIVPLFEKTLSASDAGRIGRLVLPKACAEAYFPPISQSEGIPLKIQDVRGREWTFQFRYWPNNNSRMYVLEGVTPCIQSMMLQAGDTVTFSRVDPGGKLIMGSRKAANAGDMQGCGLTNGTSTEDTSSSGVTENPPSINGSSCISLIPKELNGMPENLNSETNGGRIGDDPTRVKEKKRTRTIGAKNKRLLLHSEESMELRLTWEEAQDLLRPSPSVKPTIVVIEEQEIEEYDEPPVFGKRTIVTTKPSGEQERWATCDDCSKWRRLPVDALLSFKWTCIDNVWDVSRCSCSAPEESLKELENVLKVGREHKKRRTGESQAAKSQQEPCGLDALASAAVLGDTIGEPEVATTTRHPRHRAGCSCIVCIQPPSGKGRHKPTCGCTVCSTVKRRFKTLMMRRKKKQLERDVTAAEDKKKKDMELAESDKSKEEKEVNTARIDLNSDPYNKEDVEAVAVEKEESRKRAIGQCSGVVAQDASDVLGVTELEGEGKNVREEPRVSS
# T2: HIGH-LEVEL EXPRESSION OF SUGAR INDUCIBLE2 (HSI2), BiFC fusion (Arabidopsis thaliana) (UniProt Q8W4L5)
# T2 sequence: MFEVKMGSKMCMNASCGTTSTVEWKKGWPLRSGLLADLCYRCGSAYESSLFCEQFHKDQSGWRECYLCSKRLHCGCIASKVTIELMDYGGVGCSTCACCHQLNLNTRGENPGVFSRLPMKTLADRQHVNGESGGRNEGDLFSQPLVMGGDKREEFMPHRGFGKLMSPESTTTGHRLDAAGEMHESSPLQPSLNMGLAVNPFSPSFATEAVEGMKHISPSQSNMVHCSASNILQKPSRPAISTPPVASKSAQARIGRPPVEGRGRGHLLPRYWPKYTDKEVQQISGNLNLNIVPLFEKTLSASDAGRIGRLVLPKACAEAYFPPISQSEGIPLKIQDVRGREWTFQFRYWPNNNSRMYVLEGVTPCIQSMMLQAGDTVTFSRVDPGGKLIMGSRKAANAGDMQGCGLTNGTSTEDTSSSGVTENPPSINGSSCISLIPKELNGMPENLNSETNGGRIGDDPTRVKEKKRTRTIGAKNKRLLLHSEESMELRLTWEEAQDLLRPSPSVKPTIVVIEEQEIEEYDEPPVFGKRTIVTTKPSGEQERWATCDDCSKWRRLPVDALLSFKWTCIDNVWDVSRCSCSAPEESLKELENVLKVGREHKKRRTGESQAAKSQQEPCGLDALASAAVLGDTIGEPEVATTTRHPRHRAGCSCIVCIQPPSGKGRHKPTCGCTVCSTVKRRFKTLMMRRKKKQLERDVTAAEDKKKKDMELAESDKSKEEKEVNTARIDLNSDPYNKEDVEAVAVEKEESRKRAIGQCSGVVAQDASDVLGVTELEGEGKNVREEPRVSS
# T3: HSI2-GFP, for co-immunoprecipitation (Arabidopsis thaliana) (UniProt Q8W4L5)
# T3 sequence: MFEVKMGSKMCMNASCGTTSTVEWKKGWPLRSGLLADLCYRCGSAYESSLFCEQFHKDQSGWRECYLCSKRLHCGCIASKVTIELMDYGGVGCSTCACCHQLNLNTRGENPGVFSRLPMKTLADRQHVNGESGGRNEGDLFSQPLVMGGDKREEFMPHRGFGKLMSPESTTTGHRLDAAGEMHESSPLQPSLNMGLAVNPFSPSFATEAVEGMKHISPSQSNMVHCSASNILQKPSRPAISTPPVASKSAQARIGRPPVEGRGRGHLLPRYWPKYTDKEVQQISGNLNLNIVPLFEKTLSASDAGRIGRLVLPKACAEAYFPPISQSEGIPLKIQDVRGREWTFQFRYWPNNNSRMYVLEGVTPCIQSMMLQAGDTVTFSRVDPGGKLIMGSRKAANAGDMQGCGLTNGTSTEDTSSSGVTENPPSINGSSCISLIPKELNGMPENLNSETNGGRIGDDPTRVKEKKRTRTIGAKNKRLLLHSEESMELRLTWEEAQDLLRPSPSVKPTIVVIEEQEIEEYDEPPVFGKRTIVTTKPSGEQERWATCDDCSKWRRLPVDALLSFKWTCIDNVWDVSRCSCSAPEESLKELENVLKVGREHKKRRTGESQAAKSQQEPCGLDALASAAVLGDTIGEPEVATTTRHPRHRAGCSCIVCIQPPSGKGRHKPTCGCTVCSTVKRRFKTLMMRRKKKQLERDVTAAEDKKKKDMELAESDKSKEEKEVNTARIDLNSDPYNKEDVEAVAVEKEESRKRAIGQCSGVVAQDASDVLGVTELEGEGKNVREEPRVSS
# How the values were obtained:
# [1] = biological target: HSI2-LIKE1 (HSL1), BiFC fusion (Arabidopsis thaliana) (UniProt Q5CCK4); experiment: split reporter
# [2] = biological target: T1, HSI2, yeast two-hybrid fusion (Arabidopsis thaliana); experiment: two-hybrid
# [3] = biological target: HSL1, yeast two-hybrid fusion (Arabidopsis thaliana) (UniProt Q5CCK4); experiment: two-hybrid
# [4] = biological target: T2, HIGH-LEVEL EXPRESSION OF SUGAR INDUCIBLE2 (HSI2), BiFC fusion (Arabidopsis thaliana); experiment: split reporter
# [5] = biological target: HSL1-GFP, for co-immunoprecipitation (Arabidopsis thaliana) (UniProt Q5CCK4); experiment: co-IP
# [6] = biological target: T3, HSI2-GFP, for co-immunoprecipitation (Arabidopsis thaliana); experiment: co-IP
molecule,measurement,setting,value
"HSI2-LIKE1 (HSL1), BiFC fusion (from UniProt Q5CCK4 1-780)",binding,[1],binds
"HSI2mPHD, yeast two-hybrid fusion (from UniProt Q8W4L5 1-790)",binding,[2],no binding
same,binding,[3],no binding
"LIKE HETEROCHROMATIN PROTEIN1 (LHP1), BiFC fusion (protein, UniProt Q946J8 1-445) MKGASGAVKKKPQVLNEAGEAETAVETVGESRKISGDGGFGSDDGGGGGGGGSGESILREIGDDRPTEDGDEEEEEDEDEDDGGDEEDEEGEGEGGQEERPKLDEGFYEIEAIRRKRVRKGKVQYLIKWRGWPETANTWEPLENLQSIADVIDAFEGSLKPGKPGRKRKRKYAGPHSQMKKKQRLTSTSHDATEKSDSSTSLNNSSLPDIPDPLDLSGSSLLNRDVEAKNAYVSNQVEANSGSVGMARQVRLIDNEKEYDPTLNELRGPVNNSNGAGCSQGGGIGSEGDNVRPNGLLKVYPKELDKNSRFIGAKRRKSGSVKRFKQDGSTSNNHTAPTDQNLTPDLTTLDSFGRIARMGNEYPGVMENCNLSQKTKIEELDITKILKPMSFTASVSDNVQEVLVTFLALRSDGKEALVDNRFLKAHNPHLLIEFYEQHLKYNRTP",binding,[4],binds
same,binding,[1],binds
"LHP1-myc, for co-immunoprecipitation (protein, UniProt Q946J8 1-445) MKGASGAVKKKPQVLNEAGEAETAVETVGESRKISGDGGFGSDDGGGGGGGGSGESILREIGDDRPTEDGDEEEEEDEDEDDGGDEEDEEGEGEGGQEERPKLDEGFYEIEAIRRKRVRKGKVQYLIKWRGWPETANTWEPLENLQSIADVIDAFEGSLKPGKPGRKRKRKYAGPHSQMKKKQRLTSTSHDATEKSDSSTSLNNSSLPDIPDPLDLSGSSLLNRDVEAKNAYVSNQVEANSGSVGMARQVRLIDNEKEYDPTLNELRGPVNNSNGAGCSQGGGIGSEGDNVRPNGLLKVYPKELDKNSRFIGAKRRKSGSVKRFKQDGSTSNNHTAPTDQNLTPDLTTLDSFGRIARMGNEYPGVMENCNLSQKTKIEELDITKILKPMSFTASVSDNVQEVLVTFLALRSDGKEALVDNRFLKAHNPHLLIEFYEQHLKYNRTP",binding,[5],binds
same,binding,[6],binds
